# Results taken from patent publication US20090286785A1, “Pyrimidine Derivatives” (Bayer Pharmaceuticals Corporation, priority 2005, published 2009).
# pIC50: −log10 of the molar value. Some entries share one result that the patent states for a list of compounds. At least one compound was matched to its structure with a doubt left.
# Test system: HCT116 cells
# Test: HCT116 cytotoxic activity assay (Alamar Blue, 72 h)
# Conditions: read-out: IC50 in the HCT116 cytotoxic activity assay, 72 h compound exposure, Alamar Blue readout
structure (smiles),measurement,value
Nc1nc(Nc2ccc(Oc3ccnc(C(F)(F)F)c3)cc2)cc(-c2ccc3c(c2)OCO3)n1 [Example 10],pIC50,≥ 6.30
